Laboratory results published in publication PMC7819943, “Rice protein-binding microarrays: a tool to detect cis-acting elements near promoter regions in rice”.
The other results are listed elsewhere or left out.

These sequences were tested against T1, OsSMF1 (Oryza sativa, UniProt Q6ZLB0 1-436) (assay: protein-binding microarray (RPBM); PBS, 2% BSA, 51.3 ng/ul salmon testes DNA, 50 uM zinc acetate, 200 nM TF, 25 C, 1 h; high values mean tight binding). Details: protein: recombinant; tags: N-terminal polyhistidine and DsRed monomer fusion (pET32a); chain copies: 2; label: CyDye5-dUTP incorporated in the synthesized complementary strand; 3' TTTTT single-stranded linker to array surface; dsDNA, one strand shown.
T1 sequence: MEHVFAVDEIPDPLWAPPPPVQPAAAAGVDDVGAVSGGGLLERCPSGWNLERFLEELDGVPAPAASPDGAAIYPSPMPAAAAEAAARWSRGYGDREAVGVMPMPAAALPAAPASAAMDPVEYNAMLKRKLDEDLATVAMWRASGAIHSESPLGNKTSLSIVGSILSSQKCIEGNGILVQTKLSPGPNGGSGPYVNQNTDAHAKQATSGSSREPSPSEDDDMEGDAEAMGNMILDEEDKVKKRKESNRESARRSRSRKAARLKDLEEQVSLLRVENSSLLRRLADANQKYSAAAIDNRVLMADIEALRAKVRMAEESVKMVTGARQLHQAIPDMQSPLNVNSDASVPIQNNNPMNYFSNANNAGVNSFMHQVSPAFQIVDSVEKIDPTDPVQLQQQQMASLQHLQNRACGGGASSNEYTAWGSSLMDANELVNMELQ
How it was run: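 Using Ni–NTA, transcription factors fused N-terminally to polyhistidine and DsRed were purified after expression in E. coli BL21-CodonPlus. These were incubated at 200 nM with a blocked, double-stranded custom Agilent array for 1 h at 25 °C in a buffer containing 50 µM zinc acetate, and the array was washed. The binding signal is per-feature fluorescence intensity (arbitrary units) on an Axon 4000B scanner.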

Row | Sequence | binding signal
1 | CGCATACAGCACAAGTGGGTAAAGACTGATCAGTTTGGGACGGAGTCACCTAGTGCAG | 3280 fluorescence intensity (a.u.)
2 | ACGTCCATGATGTACTCCACGCGCCGCTCTTTCTCCGTCACGGAGTCACCTAGTGCAG | 3190 fluorescence intensity (a.u.)
3 | TGAGCATGTGTTTGCGAAAGTTTTCCCTCTACCACGCAAGCGGAGTCACCTAGTGCAG | 3280 fluorescence intensity (a.u.)
4 | AAAGGGAGGAATTTGGATATTTAAAATTTGGAAAGGGAACCGGAGTCACCTAGTGCAG | 13500 fluorescence intensity (a.u.)
5 | CTTGACATCCTCGTGCGAGAGCTCGCCCGCCGCTCCGCTCCGGAGTCACCTAGTGCAG | 4280 fluorescence intensity (a.u.)
6 | GACGCAACTTCCCACGTCTTCTCTTCTCTCCTCCTCCGCACGGAGTCACCTAGTGCAG | 12300 fluorescence intensity (a.u.)
7 | CTTAAGCATTACACACGTACGTCAAGAATGCAACCTGATCCGGAGTCACCTAGTGCAG | 4580 fluorescence intensity (a.u.)
8 | GACGTCGCGGGAACCACGCACGCCGCCCTCTACTCGTCGGCGGAGTCACCTAGTGCAG | 3770 fluorescence intensity (a.u.)
9 | TCTTCATACTTTGATGTCAAGCTGTAATGTTCTCAATTGGCGGAGTCACCTAGTGCAG | 3410 fluorescence intensity (a.u.)
10 | TGAGCGCGTCGTTCTCGATGTAGTCGTAGCACCCGACGCTCGGAGTCACCTAGTGCAG | 31700 fluorescence intensity (a.u.)
11 | CCTTTTCCCTGCTGTGCATCTTTTGGATAGTGGTGGTGGGCGGAGTCACCTAGTGCAG | 3680 fluorescence intensity (a.u.)
12 | ATGTGCCCCGCGACATATCTAGTGATAGATCATGTGTGTTCGGAGTCACCTAGTGCAG | 3420 fluorescence intensity (a.u.)
13 | CAGCAAGTCTGCGGGATCGCGTGGTGCCACGTGGCCGGCACGGAGTCACCTAGTGCAG | 36500 fluorescence intensity (a.u.)
14 | TTGCCGCCGCCAGCGAGGCCGCCGGTGATGGTAGTGCTGGCGGAGTCACCTAGTGCAG | 3690 fluorescence intensity (a.u.)
15 | CCTTAGCTGCTGTGTCAGATTGCTTTGGTCGCTTGGTGCGCGGAGTCACCTAGTGCAG | 6310 fluorescence intensity (a.u.)
16 | AGCACTTGCACTTGCACACACACATGACACATCATACTTGCGGAGTCACCTAGTGCAG | 9470 fluorescence intensity (a.u.)
17 | GGCGGTTTTGGAAACCCTGACTATATCTCATAGAGCTTATCGGAGTCACCTAGTGCAG | 3740 fluorescence intensity (a.u.)
18 | GGGAGCTCTGTGCGTCGTCAGCTCTCCAGCCCGGGACAGTCGGAGTCACCTAGTGCAG | 6060 fluorescence intensity (a.u.)
19 | AGACATCTTTGCCGTGATACGTCAGTCCAGACAGGCAATGCGGAGTCACCTAGTGCAG | 3780 fluorescence intensity (a.u.)
20 | TTTTGTTTGACTCCTGATCGTGTAGGCTGACAAGGACATCCGGAGTCACCTAGTGCAG | 3160 fluorescence intensity (a.u.)
21 | AACGGGCGATCTGTCTTGGTCATGACGCCACCAAAGGAGCCGGAGTCACCTAGTGCAG | 4250 fluorescence intensity (a.u.)

Row | Sequence | binding signal
22 | GGAGTGTGCGGCGGCGCAAGAGAAGTCGTCTCCTCCTCCGCGGAGTCACCTAGTGCAG | 3700 fluorescence intensity (a.u.)
23 | GTCCATGCCACACACGTCGCGTCCCATGTCGTCATGCCTCCGGAGTCACCTAGTGCAG | 5610 fluorescence intensity (a.u.)
24 | TTTTGGACTGCTTAATGACAGGTTGCATGCACACTAATCCCGGAGTCACCTAGTGCAG | 3700 fluorescence intensity (a.u.)
25 | TTATTAGCAAGATACGCATCACATGATGTGTGATCACGAGCGGAGTCACCTAGTGCAG | 23000 fluorescence intensity (a.u.)
26 | TGAACAATGTTACAAATCACTTTATCGGATGAAGAAATGACGGAGTCACCTAGTGCAG | 46400 fluorescence intensity (a.u.)
27 | TTGCTGGCTAGACTGCCACGTAGGATCAAATCCACCGCAGCGGAGTCACCTAGTGCAG | 14100 fluorescence intensity (a.u.)
28 | GTATGCCATATGGAATCTCCATCAACCACGTGCATCAACTCGGAGTCACCTAGTGCAG | 3800 fluorescence intensity (a.u.)
29 | GCTGTTGTCGTCCTCGGCTGCCGAGCTGTCCTAGCTCGCCCGGAGTCACCTAGTGCAG | 3390 fluorescence intensity (a.u.)
30 | TCATCTAAGGTGCTGAACTTCATGCCTATTTGAGGTATCCCGGAGTCACCTAGTGCAG | 9560 fluorescence intensity (a.u.)
31 | ATCACAATAATATGCCACGTTATTGTACGGAGTGGATTGACGGAGTCACCTAGTGCAG | 4580 fluorescence intensity (a.u.)
32 | GTAAATTACGAGACGAATCTTTTGAGCATAATTACGCCATCGGAGTCACCTAGTGCAG | 17600 fluorescence intensity (a.u.)
33 | GCGGCGCATCCAGGAGGTTGAGTCGAGCACGCCACCGCTGCGGAGTCACCTAGTGCAG | 3420 fluorescence intensity (a.u.)
34 | ATAGTCAAAGTTCAAGGTGACTATGATTGGCAAATTTCCTCGGAGTCACCTAGTGCAG | 3140 fluorescence intensity (a.u.)
35 | GAACGCCGCCACCTACTCCCACTGCCACGTGGGCCCACATCGGAGTCACCTAGTGCAG | 12500 fluorescence intensity (a.u.)
36 | GCCGCTACAAACCGTGGGCAAGACGTGTCGCCATGGGAGCCGGAGTCACCTAGTGCAG | 4560 fluorescence intensity (a.u.)
37 | TAAGTTTCCACTCGACACGTCAAGTAAAACCGAGTACTATCGGAGTCACCTAGTGCAG | 4740 fluorescence intensity (a.u.)
38 | CCAAGTACCCAACCCAACGCCACGCCACGCACCCCGACCCCGGAGTCACCTAGTGCAG | 5650 fluorescence intensity (a.u.)
39 | CATCAACGGCCAGTAGCGCTCCACGTCCGACCAAAAGCAGCGGAGTCACCTAGTGCAG | 6150 fluorescence intensity (a.u.)
40 | ACACGCATGCAGCCGTGTAGACGTGTACACACATGCGGAACGGAGTCACCTAGTGCAG | 4030 fluorescence intensity (a.u.)
41 | GGTCTAGGTACTACTACACGTAGTCTTTGTAGGGACTAATCGGAGTCACCTAGTGCAG | 3270 fluorescence intensity (a.u.)
42 | GAACATCCAAATGTGCCCACAAGTTTCAGAGTTTCAGAAACGGAGTCACCTAGTGCAG | 4130 fluorescence intensity (a.u.)

Part of the list above, reformatted.
CCAAGTACCCAACCCAACGCCACGCCACGCACCCCGACCCCGGAGTCACCTAGTGCAG
  binding signal = 5650 fluorescence intensity (a.u.)
CATCAACGGCCAGTAGCGCTCCACGTCCGACCAAAAGCAGCGGAGTCACCTAGTGCAG
  binding signal = 6150 fluorescence intensity (a.u.)
